About 17,000 (5.5%) of roughly 310,000 compounds were called active. Inconclusive means that the source gave no clear call. Such entries were picked first, then a sample of the others. The call rests on the fitted dose curve; in most records, active means well fitted inhibition curve with a large enough effect; inconclusive means small, poorly fitted or top-dose-only effect, or effect the other way; inactive means no such curve, though single readings can be large or run the other way. Potencies of inconclusive entries are doubtful fits and often do not repeat.
biological target: Nuclear receptor ROR-gamma (Mus musculus) (UniProt P51450); assay: qHTS for inhibitors of ROR gamma transcriptional activity; conditions: Drosophila S2 Gal4-RORgamma UAS-luciferase reporter, 20 h; series mostly up to 53.6 µM; further: nearly all actives have a fitted effect of over 60% in size
How it was run: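 Compounds are pin-transferred onto Drosophila Schneider cells expressing a copper-inducible Gal4–ROR gamma transactivation domain fusion. After 1 hr, copper sulfate is added to 700 uM final; luciferase is read 20 hr later.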
Potency means the concentration at half of the fitted maximal effect.

The chains behind the UniProt entries cited, without tags or fusion partners. Where a name states a change or a piece, a line headed by the entry shows the natural chain unless it says otherwise.
UniProt P51450: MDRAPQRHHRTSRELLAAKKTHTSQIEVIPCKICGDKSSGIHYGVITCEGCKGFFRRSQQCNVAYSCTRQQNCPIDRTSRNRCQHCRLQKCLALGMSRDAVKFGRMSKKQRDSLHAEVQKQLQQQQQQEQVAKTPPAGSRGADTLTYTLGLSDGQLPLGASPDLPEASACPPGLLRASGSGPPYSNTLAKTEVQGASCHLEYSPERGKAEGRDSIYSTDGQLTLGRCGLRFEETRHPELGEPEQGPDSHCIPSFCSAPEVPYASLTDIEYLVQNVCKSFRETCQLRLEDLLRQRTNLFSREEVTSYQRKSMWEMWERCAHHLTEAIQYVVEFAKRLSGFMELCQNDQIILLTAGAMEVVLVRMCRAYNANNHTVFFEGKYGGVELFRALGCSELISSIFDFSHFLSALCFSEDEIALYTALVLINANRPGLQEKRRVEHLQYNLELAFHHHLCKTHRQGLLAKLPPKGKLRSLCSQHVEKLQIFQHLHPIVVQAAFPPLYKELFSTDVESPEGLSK

Which Potency does the source give for `COc1cc(/C=N/NC(=O)c2cc3c(ccc4ccccc43)o2)cc(OC)c1O` here?
Its Potency is inconclusive: 35.5 µM [inhibitor, single point].

Which Potency does the source give for `COc1ccc(OCCOC(=O)c2cccc(-n3cnnn3)c2)cc1` here?
Its Potency is inconclusive: 2.82 µM [activator, single point].

For `CC1CCCC/C1=N\NC(=S)NCCc1ccccc1` (stereo not drawn), which Potency is on record?
Its Potency is active: 0.355 µM.

Which Potency does the source give for `CCOC(=O)c1ccc(NC(=O)c2nc[nH]c2C(=O)N[C@@H](CC(C)C)C(=O)OC(C)(C)C)cc1` here?
The Potency was active: 2.51 µM.

With `N#C/C(=C\c1ccccc1)C(=O)Nc1nncs1` as the molecule, how does the Potency read?
The Potency was inconclusive: 15.8 µM [inhibitor, single point].

With `COC(=O)c1cccc(CN2C(=O)SC(Nc3ccccc3)C2=O)c1` (stereo not drawn) as the molecule, how does the Potency read?
The Potency was inconclusive: 17.8 µM [activator, single point].

For `CC(C)n1c(C(F)(F)F)nc2cc(C(=O)N3CCCCC3)ccc21`, which Potency is on record?
The Potency was inconclusive: 35.5 µM [activator, single point].

For `Cn1ncc([N+](=O)[O-])c1C(=O)Nc1ccn(Cc2ccccc2F)n1`, which Potency is on record?
Its Potency is “inactive”.

How did the Potency turn out when `NC(=S)N/N=C1/CCSc2ccc3ccccc3c21` was run?
Its Potency is active: 0.631 µM.

For `O=C(NC(=S)NCCc1ccccc1)c1ccccc1F`, which Potency is on record?
Its Potency is active: 17.8 µM.

`S=c1[nH]nc(COc2ccc(Cl)cc2)n1Cc1ccccc1` was tested. Which Potency did it give?
The Potency was active: 2.51 µM.

For `COc1ccc2c(c1)Cc1sc(NC(=O)c3ccccc3)nc1-2`, which Potency is on record?
Its Potency is active: 11.2 µM.

With `Fc1ccccc1/C=N/Nc1ncnc2ccccc12` as the molecule, how does the Potency read?
Its Potency is active: 2.82 µM.

For `C(=N\NCc1ccccc1)/c1ccc2nccnc2c1`, which Potency is on record?
The Potency was inconclusive: 28.2 µM [inhibitor, single point].

For `Cn1c(-c2ccc(F)cc2)cnc1SCC(=O)NCc1ccco1`, which Potency is on record?
Its Potency is inconclusive: 11.2 µM [activator, partial curve, poor fit].

How did the Potency turn out when `CC(=O)O[C@@H](C)C#C[Si](C)(C)c1ccccc1` was run?
The Potency was inconclusive: 1.26 µM [activator, single point].

With `Cc1csc(NC(=O)c2nc(-c3ccccc3)n(-c3ccccc3)n2)n1` as the molecule, how does the Potency read?
Its Potency is inconclusive: 0.891 µM [inhibitor, full curve, poor fit].

How did the Potency turn out when `CCN(CC)c1ccc(NC(=O)CCS(=O)(=O)c2cccc3nsnc23)c(C)c1` was run?
Its Potency is “inactive”.

Which Potency does the source give for `CCc1sc(C(=O)N2CCN(S(C)(=O)=O)CC2)cc1Br` here?
The Potency was “inactive”.

`COCCn1c(=O)[nH]c2cc(C(=O)OC)ccc2c1=O` was tested. Which Potency did it give?
Its Potency is “inactive”.

`C/C(CC(=O)NC1CCCCC1)=N\NC(=O)c1ccc(Br)cc1` was tested. Which Potency did it give?
The Potency was active: 12.6 µM.

How did the Potency turn out when `CCCCN(CCCC)Cc1ccc(C(=O)NNC(=O)Nc2ccc(F)cc2)o1` was run?
Its Potency is “inactive”.

Which Potency does the source give for `S=C(Nc1cccc(Cl)c1)Nc1ccccc1Oc1ccccc1` here?
The Potency was active: 10 µM.

Which Potency does the source give for `Cc1cccc(OCC(=O)N/N=C/c2cn[nH]c2-c2ccc(Cl)c(Cl)c2)c1` here?
Its Potency is inconclusive: 17.8 µM [activator, single point].

With `CCOC(=O)C1(Cc2ccc(Cl)cc2)CCN(C(=O)c2ccoc2)CC1` as the molecule, how does the Potency read?
The Potency was “inactive”.

How did the Potency turn out when `CCN(C(=O)c1cc(S(=O)(=O)N2CCCCC2)c[nH]1)c1ccc(OC)cc1` was run?
Its Potency is “inactive”.

For `O=C(Nc1ncccc1O)c1ccc(OCC2CCCO2)cc1` (stereo not drawn), which Potency is on record?
The Potency was active: 10 µM.

Which Potency does the source give for `Cc1csc(NC(=O)/C=C/c2ccco2)n1` here?
The Potency was inconclusive: 15.8 µM [inhibitor, single point].

`COc1ccc2oc(=O)c(C(=O)Nc3cccc(C)c3)cc2c1` was tested. Which Potency did it give?
The Potency was active: 2.24 µM.

With `O=c1[nH]c(=S)[nH]c2sccc12` as the molecule, how does the Potency read?
Its Potency is “inactive”.

How did the Potency turn out when `CC[C@H](C)[C@@H](CN[C@H](CCCCNC)CNC)NCC1CCCC1` was run?
Its Potency is “inactive”.

How did the Potency turn out when `Cc1nc(-c2ccc(C(=O)Nc3cccc(F)c3)cc2)cs1` was run?
The Potency was inconclusive: 11.2 µM [inhibitor, single point].

Which Potency does the source give for `CN(C)c1nc(N/N=C/c2ccccc2O)nc(Nc2ccc(F)cc2)n1` here?
The Potency was active: 0.224 µM.

For `S=c1nc(-c2ccccc2)c(-c2ccccc2)n[nH]1`, which Potency is on record?
Its Potency is active: 8.91 µM.

For `Cc1ccc(NC(=O)CN(C)S(=O)(=O)c2ccc3c(c2)c(=O)n(C)c(=O)n3C)cc1`, which Potency is on record?
Its Potency is “inactive”.

For `COc1ccc(CN2CCNC(=O)C2CC(=O)NCc2cccc(C)n2)c(OC)c1` (stereo not drawn), which Potency is on record?
The Potency was inconclusive: 1.26 µM [activator, full curve, poor fit].

How did the Potency turn out when `COc1ccc(-c2csc3[nH]c(=S)n(-c4ccccc4)c(=O)c23)cc1OC` was run?
Its Potency is active: 2.51 µM.

How did the Potency turn out when `O=C(c1cccc([N+](=O)[O-])c1)N1CCN(S(=O)(=O)N2CCCCC2)CC1` was run?
The Potency was “inactive”.

With `N#C/C(=C\c1ccc(OCCN2CCOCC2)cc1)C(=O)Nc1ccc(S(N)(=O)=O)cc1` as the molecule, how does the Potency read?
The Potency was “inactive”.

Which Potency does the source give for `COc1ccc2c(c1)c(CC(=O)NCc1cc([N+](=O)[O-])ccc1O)c(C)n2C(=O)c1ccc(Cl)cc1` here?
Its Potency is inconclusive: 11.2 µM [activator, partial curve].

With `Cn1nnc2cc(C(=O)NCCC3=CCCCC3)ccc21` as the molecule, how does the Potency read?
Its Potency is inconclusive: 35.5 µM [inhibitor, single point].

How did the Potency turn out when `CCCOc1nnnn1-c1ccccc1` was run?
The Potency was inconclusive: 0.891 µM [inhibitor, single point].

With `COc1cc(NC(=O)CN2CCC(C)CC2)c(C)cc1[N+](=O)[O-]` as the molecule, how does the Potency read?
Its Potency is inconclusive: 12.6 µM [activator, single point].

`COc1ccc(C(=O)/C=C/N(C)C)cc1OC` was tested. Which Potency did it give?
Its Potency is “inactive”.

For `COc1ccc(S(=O)(=O)N2CC(C)N(C(=O)N(C)C)C2C)cc1` (stereo not drawn), which Potency is on record?
The Potency was “inactive”.

With `Fc1ccccc1CSc1nnnn1-c1ccc2c(c1)OCO2` as the molecule, how does the Potency read?
Its Potency is inconclusive: 20 µM [activator, partial curve].

Which Potency does the source give for `CCOC(=O)c1sc(NNC(=O)c2ccc(F)cc2)nc1C` here?
Its Potency is active: 0.708 µM.

For `CC(C)NC(=O)C(=O)NNC(=O)C12CC3CC(CC(C3)C1)C2`, which Potency is on record?
The Potency was inconclusive: 0.0447 µM [inhibitor, full curve, poor fit].

How did the Potency turn out when `COc1ccc(C(=O)NN)cc1` was run?
The Potency was inconclusive: 2.82 µM [inhibitor, partial curve, poor fit].

With `Cc1csc(NC(=O)c2cc(-c3ccco3)nc3ccccc23)n1` as the molecule, how does the Potency read?
Its Potency is inconclusive: 31.6 µM [inhibitor, single point].

With `COC(=O)c1ccc(NC(=O)c2cccc(N3C(=O)C4C5C=CC(C6CC56)C4C3=O)c2)cc1` (stereo not drawn) as the molecule, how does the Potency read?
The Potency was inconclusive: 8.91 µM [activator, partial curve].

Which Potency does the source give for `C=CCSc1cc(C)nc2c(-c3ccccc3)cnn12` here?
Its Potency is active: 10 µM.

How did the Potency turn out when `COc1ccc(N(C)S(=O)(=O)c2cccc(C(=O)NC3=NCCS3)c2)cc1` was run?
Its Potency is active: 6.31 µM.

How did the Potency turn out when `COc1ccc(C(=O)Cn2cnc3ccccc3c2=O)c(OC)c1` was run?
The Potency was active: 4.47 µM.

`COC(=O)c1ccc(NC(=O)CCc2c(C)nc3ncnn3c2C)cc1` was tested. Which Potency did it give?
The Potency was “inactive”.

For `O=C(CSc1nc2ccccc2s1)NNC(=O)Nc1ccc(Cl)c(Cl)c1`, which Potency is on record?
Its Potency is inconclusive: 12.6 µM [activator, single point].

For `NC(=O)c1c(NC(=O)Cn2cc([N+](=O)[O-])cn2)sc2c1CCCC2`, which Potency is on record?
Its Potency is inconclusive: 12.6 µM [activator, single point].

For `CCc1c(C)nc2cc(-c3cc(OC)cc(OC)c3)nn2c1N1CCN(CCN2CCOCC2)CC1`, which Potency is on record?
The Potency was inconclusive: 2.24 µM [activator, partial curve].

Which Potency does the source give for `Cc1ccn2cc(CNC(=O)c3cccs3)nc2c1` here?
The Potency was inconclusive: 17.8 µM [inhibitor, single point].

How did the Potency turn out when `COc1ccc(N2CCN(C3CCCN(S(=O)(=O)c4ccccc4)C3)CC2)cc1` (stereo not drawn) was run?
Its Potency is inconclusive: 0.708 µM [inhibitor, single point].

`COc1ccccc1N1CCN(C(c2ccccc2)c2nnnn2CCc2ccccc2)CC1` (stereo not drawn) was tested. Which Potency did it give?
The Potency was inconclusive: 10 µM [activator, partial curve].

For `COc1cc(CNCc2ccccn2)ccc1OCC(N)=O`, which Potency is on record?
Its Potency is inconclusive: 7.08 µM [activator, partial curve, poor fit].

`CC(C)(C)CC(=O)Nc1nnc(C(F)(F)F)s1` was tested. Which Potency did it give?
Its Potency is inconclusive: 0.708 µM [activator, full curve, poor fit].

With `C=CC1=C(C(=O)O)N2C(=O)C(NC(=O)/C(=N\O)c3csc(N)n3)C2SC1` (stereo not drawn) as the molecule, how does the Potency read?
The Potency was inconclusive: 11.2 µM [inhibitor, partial curve, poor fit].

Which Potency does the source give for `CN(C)CCn1c(=S)[nH]c2ccc(Cl)cc2c1=O` here?
Its Potency is active: 10 µM.

Which Potency does the source give for `O=C(NNC1=Nc2ccccc2SC1)c1ccc(Cl)cc1` here?
Its Potency is active: 1.12 µM.

How did the Potency turn out when `COc1ccc(OCc2cc(C(=O)N(C)C3CCOC3)no2)c(Cl)c1` (stereo not drawn) was run?
The Potency was inconclusive: 14.1 µM [activator, single point].

Which Potency does the source give for `CN(C1CCCCC1)S(=O)(=O)c1ccc(NC(=S)NC(=O)c2cccs2)cc1` here?
Its Potency is active: 5.62 µM.

Which Potency does the source give for `COc1ccc(-c2csc(C3=C(O)CN(C(C)C)C3=N)n2)cc1OC` here?
Its Potency is “inactive”.

With `CCOc1ncc(S(=O)(=O)N2CCN(CC)CC2)cc1C(=O)O` as the molecule, how does the Potency read?
The Potency was “inactive”.

For `Cc1ccc(Nc2cc(-c3ccccc3)nc3ncnn23)cc1`, which Potency is on record?
Its Potency is active: 11.2 µM.

For `C/C(=C\C(=S)Nc1ccccc1)Nc1cccc2ccccc12`, which Potency is on record?
The Potency was active: 15.8 µM.

With `CCOC(=O)C1CCCN(c2ncnc3c2cnn3-c2ccc(OC)cc2)C1` (stereo not drawn) as the molecule, how does the Potency read?
The Potency was inconclusive: 35.5 µM [inhibitor, single point].

For `COC(=O)CN1C(=O)C(O)(CC(=O)c2ccc(Br)cc2)c2ccccc21` (stereo not drawn), which Potency is on record?
The Potency was “inactive”.

`Cc1ccccc1NS(=O)(=O)c1cc(C(=O)Nc2cccc([N+](=O)[O-])c2)ccc1C` was tested. Which Potency did it give?
The Potency was inconclusive: 20 µM [activator, partial curve].

`Cc1nnc(SCC(=O)Nc2ccccc2)[nH]c1=O` was tested. Which Potency did it give?
The Potency was “inactive”.

How did the Potency turn out when `CCN(CC)CCNc1ncnc2c1sc1nc(N3CCOCC3)c3c(c12)CCCC3` was run?
The Potency was inconclusive: 35.5 µM [inhibitor, single point].

How did the Potency turn out when `N#Cc1ccc(C(=O)Nc2nc(-c3cccs3)c(C(=O)C(F)(F)F)s2)cc1` was run?
The Potency was inconclusive: 31.6 µM [inhibitor, single point].

— PubChem BioAssay AID2551 (National Center for Advancing Translational Sciences (NCATS), 2010)
